Results: PMC7819943, “Rice protein-binding microarrays: a tool to detect cis-acting elements near promoter regions in rice”
Some of the results follow.

Chains of the proteins cited; added tags and fusions are not shown.
UniProt Q0JBA9, entry or part of it: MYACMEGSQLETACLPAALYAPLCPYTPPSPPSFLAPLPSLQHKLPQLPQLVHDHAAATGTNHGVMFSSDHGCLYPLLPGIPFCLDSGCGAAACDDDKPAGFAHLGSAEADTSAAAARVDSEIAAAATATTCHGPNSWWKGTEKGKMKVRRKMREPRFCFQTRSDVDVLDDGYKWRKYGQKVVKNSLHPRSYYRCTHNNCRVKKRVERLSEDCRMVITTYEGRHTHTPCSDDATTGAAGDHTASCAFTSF

These sequences were tested against OsWRKY34 (Oryza sativa, UniProt Q0JBA9 1-250) (assay: protein-binding microarray (RPBM); PBS, 2% BSA, 51.3 ng/ul salmon testes DNA, 50 uM zinc acetate, 200 nM TF, 25 C, 1 h; high values mean tight binding). Settings: protein: recombinant; tags: N-terminal polyhistidine and DsRed monomer fusion (pET32a); label: CyDye5-dUTP incorporated in the synthesized complementary strand; 3' TTTTT single-stranded linker to array surface; dsDNA, one strand shown.
In short: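 An Axon 4000B scanner gave the binding signal as per-feature fluorescence intensity in arbitrary units. This followed washing of a custom Agilent array that had been incubated for 1 h at 25 °C with 200 nM protein in PBS, 2% BSA, salmon testes DNA and 50 µM zinc acetate. The proteins were transcription factors fused at the N-terminus to polyhistidine and DsRed, expressed in E. coli BL21-CodonPlus and purified on Ni–NTA.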

Sequence | binding signal
CTTTTGTTGTTCCCAATGCCACTGCCATGTCCATTTCTTGCGGAGTCACCTAGTGCAG | 10900 fluorescence intensity (a.u.)
AACTGCCGGTTGCCATGTTTAATTTGTCCACGCTAAGCTTCGGAGTCACCTAGTGCAG | 8570 fluorescence intensity (a.u.)
GTCCTGCATGCACCGCCCATGCCGCCCTGGGCCCACCGCTCGGAGTCACCTAGTGCAG | 8040 fluorescence intensity (a.u.)
CAATTTTCCCTCCCCTTTCATTCACCGTACTAACTTTATCCGGAGTCACCTAGTGCAG | 9590 fluorescence intensity (a.u.)
CCACGCGGCCACGCTATGCACGCGACGCCCACATCCACCACGGAGTCACCTAGTGCAG | 9660 fluorescence intensity (a.u.)
CTTATTTTTTTGTCTTTCGATCCAAGTCTTTTTTTTCTTTCGGAGTCACCTAGTGCAG | 9170 fluorescence intensity (a.u.)
ATCTCTCTTTCATCTTTCTTCTTTCTGCCTTTTTATCTTCCGGAGTCACCTAGTGCAG | 11800 fluorescence intensity (a.u.)
GTGGTTACTGTGGCTGGGCCTGCGTGAGCTGGGCTGACTACGGAGTCACCTAGTGCAG | 9220 fluorescence intensity (a.u.)
AACCTGCACGCTCATGTTGTTGTTTTGTGAAGATGCAACTCGGAGTCACCTAGTGCAG | 8030 fluorescence intensity (a.u.)
ACTCTACTCTCCTACTAGTCGTCTACTACTCGGCCAGGTGCGGAGTCACCTAGTGCAG | 10300 fluorescence intensity (a.u.)
GATCTTGCGCTCGCATCGATTGCCAAGTTCTGCCCGAGCTCGGAGTCACCTAGTGCAG | 8710 fluorescence intensity (a.u.)
CATGATCGTTTTGAGAGAACACATGCCATTTCCATCCTTACGGAGTCACCTAGTGCAG | 8250 fluorescence intensity (a.u.)
GGCTGCACATACTTCCACCGAGACCGACTCCGTTTCCTCTCGGAGTCACCTAGTGCAG | 9120 fluorescence intensity (a.u.)
CTCTCTTGCCTCTCCTGTCTCTTTCTCGGATTTTTCTCATCGGAGTCACCTAGTGCAG | 9020 fluorescence intensity (a.u.)
CTCGTCACATTACTCCGGCCCACTGTTGATTCCGTTCTGACGGAGTCACCTAGTGCAG | 9180 fluorescence intensity (a.u.)
CTACACCTTTTGCTTTGCTTTACCAGTCCCGAAACAACTACGGAGTCACCTAGTGCAG | 9660 fluorescence intensity (a.u.)
TACACCTGCCACTGCTGCTGACCCTGCCAACCCCAACAAGCGGAGTCACCTAGTGCAG | 8600 fluorescence intensity (a.u.)
AGTATTTAAGTAGTACTGTTATTTTCTCGTGTAATTCTGACGGAGTCACCTAGTGCAG | 8740 fluorescence intensity (a.u.)
TTGGGTTGGTGCTTGACCAATATATATGGGGTGTGTGTGTCGGAGTCACCTAGTGCAG | 8250 fluorescence intensity (a.u.)
GGTGTGGTGGTGGGGATTCCGCGCCGGCGAAAATCTCCGCCGGAGTCACCTAGTGCAG | 8180 fluorescence intensity (a.u.)
CTCCGCCACCGCAAACATTCATTTTCCCACAACTGTTGGCCGGAGTCACCTAGTGCAG | 9760 fluorescence intensity (a.u.)

An excerpt of these results, as comma-separated lines:
Sequence,binding signal
CTCTCTTGCCTCTCCTGTCTCTTTCTCGGATTTTTCTCATCGGAGTCACCTAGTGCAG,9020 fluorescence intensity (a.u.)
CTCGTCACATTACTCCGGCCCACTGTTGATTCCGTTCTGACGGAGTCACCTAGTGCAG,9180 fluorescence intensity (a.u.)
CTACACCTTTTGCTTTGCTTTACCAGTCCCGAAACAACTACGGAGTCACCTAGTGCAG,9660 fluorescence intensity (a.u.)
TACACCTGCCACTGCTGCTGACCCTGCCAACCCCAACAAGCGGAGTCACCTAGTGCAG,8600 fluorescence intensity (a.u.)
AGTATTTAAGTAGTACTGTTATTTTCTCGTGTAATTCTGACGGAGTCACCTAGTGCAG,8740 fluorescence intensity (a.u.)
TTGGGTTGGTGCTTGACCAATATATATGGGGTGTGTGTGTCGGAGTCACCTAGTGCAG,8250 fluorescence intensity (a.u.)
GGTGTGGTGGTGGGGATTCCGCGCCGGCGAAAATCTCCGCCGGAGTCACCTAGTGCAG,8180 fluorescence intensity (a.u.)

Remaining list, next part

Sequence | binding signal
AGGCACGCACATTGCACGTACGGCTGCACACCACGCTCACCGGAGTCACCTAGTGCAG | 8230 fluorescence intensity (a.u.)
GACCTACATTGCCGACTGCCGCAACGCGACCACCGCCACTCGGAGTCACCTAGTGCAG | 8530 fluorescence intensity (a.u.)
TACTCCTAGCTAGCAACCGCGCGCATTTTCTGACCTGTCCCGGAGTCACCTAGTGCAG | 9560 fluorescence intensity (a.u.)
ACCGAAAGTTCAATTTGGTCCTTTACATTTTATTTTGTCCCGGAGTCACCTAGTGCAG | 8240 fluorescence intensity (a.u.)
TAACAAAAGTGTGTGCTTGCTATGTAGGTCTATTATTCAGCGGAGTCACCTAGTGCAG | 8130 fluorescence intensity (a.u.)
GCGGCTGGTGCGATCGGAGAGGTGGGTGTGTGCTTGTTTCCGGAGTCACCTAGTGCAG | 8220 fluorescence intensity (a.u.)
GATAGGGTTAGCAGGGTGGGAAAATATATTTATTATAGTTCGGAGTCACCTAGTGCAG | 18700 fluorescence intensity (a.u.)
CACATCACCGAATTCCACCTTCTCATGCGGCTTCTACCCACGGAGTCACCTAGTGCAG | 11300 fluorescence intensity (a.u.)
ATAATGATATGTGTGTGCTAGCTAGCTATTGTTGATTTGTCGGAGTCACCTAGTGCAG | 8740 fluorescence intensity (a.u.)
CCCTGCCGATCTCTCTGAATTCGGTCGCCTCCTCCGCACCCGGAGTCACCTAGTGCAG | 9210 fluorescence intensity (a.u.)
GTTGCTTACTAGTATACCTTACTCTCTTTCTGAACTTTTCCGGAGTCACCTAGTGCAG | 9060 fluorescence intensity (a.u.)
CACCCAAAAGCGCACGTTCCTAAATCACGCGCCAACTGCTCGGAGTCACCTAGTGCAG | 8370 fluorescence intensity (a.u.)
TACAACACCGCCTCCGTAACCGTTCTCTCTAACTATTTCACGGAGTCACCTAGTGCAG | 12100 fluorescence intensity (a.u.)
TAGACTTCACCCGTTGCAACGCACGTCCATTTTTTTCTAGCGGAGTCACCTAGTGCAG | 8730 fluorescence intensity (a.u.)
GCTTTGTGTTCCCGATGTGCTTATGATCACGTATTGTCGACGGAGTCACCTAGTGCAG | 9920 fluorescence intensity (a.u.)
TGTGCTGGGTGGATTTGGGATTCGATGTGGCTGGAGTTGACGGAGTCACCTAGTGCAG | 12400 fluorescence intensity (a.u.)
GTGCCTTTATTATGTCTTCTCATTTACCATGAACACTTTGCGGAGTCACCTAGTGCAG | 10200 fluorescence intensity (a.u.)
GCCGCCTGCTATTGCTCCAATCCCTGATGCAGTTCCCACGCGGAGTCACCTAGTGCAG | 8760 fluorescence intensity (a.u.)
GCGGCGGCCTCCTTCTCCACCACCTTCGTGTTCGCCATCGCGGAGTCACCTAGTGCAG | 8610 fluorescence intensity (a.u.)
ACCAGCTAATCATGCCCACCCTAGCCTAGACTCCGTTGCTCGGAGTCACCTAGTGCAG | 10600 fluorescence intensity (a.u.)
CGTGCGTAAGGGCTGGTTTAGATGGCAAAATTTTTTATTTCGGAGTCACCTAGTGCAG | 10500 fluorescence intensity (a.u.)
